# The list shows a part of the results.
# Sequences of proteins named here, by UniProt entry; tags and fusion partners are left off. A change or cut given only in a name is not applied to a line headed by its entry.
# UniProt Q9BSJ6: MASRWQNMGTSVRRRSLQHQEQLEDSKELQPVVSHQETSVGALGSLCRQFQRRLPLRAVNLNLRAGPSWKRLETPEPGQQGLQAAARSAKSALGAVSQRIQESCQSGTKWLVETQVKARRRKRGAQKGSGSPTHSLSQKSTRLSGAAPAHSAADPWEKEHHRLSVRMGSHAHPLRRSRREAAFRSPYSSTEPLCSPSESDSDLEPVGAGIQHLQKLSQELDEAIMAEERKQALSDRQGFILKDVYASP
# UniProt O60346: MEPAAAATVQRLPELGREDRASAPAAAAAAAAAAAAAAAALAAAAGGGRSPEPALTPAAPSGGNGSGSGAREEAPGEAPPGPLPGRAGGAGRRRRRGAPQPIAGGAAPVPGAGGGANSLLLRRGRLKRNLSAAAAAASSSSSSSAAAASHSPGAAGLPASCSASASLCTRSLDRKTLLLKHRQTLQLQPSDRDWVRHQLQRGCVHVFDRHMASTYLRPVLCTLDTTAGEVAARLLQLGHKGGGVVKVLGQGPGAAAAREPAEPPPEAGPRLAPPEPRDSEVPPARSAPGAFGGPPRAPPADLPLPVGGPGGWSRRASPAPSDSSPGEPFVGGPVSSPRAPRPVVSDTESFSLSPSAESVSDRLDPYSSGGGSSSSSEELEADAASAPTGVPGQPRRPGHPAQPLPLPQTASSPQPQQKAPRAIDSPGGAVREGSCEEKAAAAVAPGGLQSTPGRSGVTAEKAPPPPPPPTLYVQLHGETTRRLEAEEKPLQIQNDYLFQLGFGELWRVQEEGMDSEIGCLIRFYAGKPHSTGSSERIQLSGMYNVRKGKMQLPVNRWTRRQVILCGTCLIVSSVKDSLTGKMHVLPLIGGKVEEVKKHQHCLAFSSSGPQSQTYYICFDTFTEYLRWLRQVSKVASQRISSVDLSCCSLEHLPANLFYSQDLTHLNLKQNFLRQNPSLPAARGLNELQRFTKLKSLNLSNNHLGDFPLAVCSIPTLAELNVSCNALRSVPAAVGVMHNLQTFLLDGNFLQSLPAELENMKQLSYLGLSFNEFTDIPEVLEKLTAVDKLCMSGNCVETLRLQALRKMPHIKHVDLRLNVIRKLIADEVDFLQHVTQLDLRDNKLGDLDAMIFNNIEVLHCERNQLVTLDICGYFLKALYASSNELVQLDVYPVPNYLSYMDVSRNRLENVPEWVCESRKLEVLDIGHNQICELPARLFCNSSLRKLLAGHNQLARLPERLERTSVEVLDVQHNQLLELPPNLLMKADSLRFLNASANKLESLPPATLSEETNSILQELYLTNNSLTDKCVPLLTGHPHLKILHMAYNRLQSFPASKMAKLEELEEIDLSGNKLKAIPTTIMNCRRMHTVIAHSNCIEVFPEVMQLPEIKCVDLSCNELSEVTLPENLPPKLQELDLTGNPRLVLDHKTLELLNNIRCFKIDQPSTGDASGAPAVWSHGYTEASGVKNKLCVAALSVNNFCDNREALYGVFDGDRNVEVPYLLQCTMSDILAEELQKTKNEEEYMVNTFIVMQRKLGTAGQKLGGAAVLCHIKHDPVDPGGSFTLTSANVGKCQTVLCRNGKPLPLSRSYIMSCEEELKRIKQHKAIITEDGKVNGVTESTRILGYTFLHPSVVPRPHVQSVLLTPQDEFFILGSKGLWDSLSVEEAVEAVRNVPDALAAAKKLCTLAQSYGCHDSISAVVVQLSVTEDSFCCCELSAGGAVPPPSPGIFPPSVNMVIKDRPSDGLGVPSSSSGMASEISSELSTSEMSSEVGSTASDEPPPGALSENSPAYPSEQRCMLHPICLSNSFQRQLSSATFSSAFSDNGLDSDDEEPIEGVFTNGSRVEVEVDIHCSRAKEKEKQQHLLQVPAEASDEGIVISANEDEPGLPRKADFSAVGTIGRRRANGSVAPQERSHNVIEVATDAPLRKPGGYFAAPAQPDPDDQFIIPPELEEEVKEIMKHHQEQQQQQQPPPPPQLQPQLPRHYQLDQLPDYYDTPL
# UniProt Q8N4B1: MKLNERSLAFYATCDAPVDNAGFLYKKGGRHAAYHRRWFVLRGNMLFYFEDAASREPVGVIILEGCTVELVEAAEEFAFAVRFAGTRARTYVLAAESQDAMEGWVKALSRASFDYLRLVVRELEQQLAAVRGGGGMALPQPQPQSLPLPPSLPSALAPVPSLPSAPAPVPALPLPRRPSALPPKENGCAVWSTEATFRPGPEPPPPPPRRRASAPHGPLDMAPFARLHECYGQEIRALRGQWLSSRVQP
# UniProt Q9Y2B9: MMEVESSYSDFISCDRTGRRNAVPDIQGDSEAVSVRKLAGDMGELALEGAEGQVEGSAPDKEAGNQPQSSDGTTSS
# UniProt P36871: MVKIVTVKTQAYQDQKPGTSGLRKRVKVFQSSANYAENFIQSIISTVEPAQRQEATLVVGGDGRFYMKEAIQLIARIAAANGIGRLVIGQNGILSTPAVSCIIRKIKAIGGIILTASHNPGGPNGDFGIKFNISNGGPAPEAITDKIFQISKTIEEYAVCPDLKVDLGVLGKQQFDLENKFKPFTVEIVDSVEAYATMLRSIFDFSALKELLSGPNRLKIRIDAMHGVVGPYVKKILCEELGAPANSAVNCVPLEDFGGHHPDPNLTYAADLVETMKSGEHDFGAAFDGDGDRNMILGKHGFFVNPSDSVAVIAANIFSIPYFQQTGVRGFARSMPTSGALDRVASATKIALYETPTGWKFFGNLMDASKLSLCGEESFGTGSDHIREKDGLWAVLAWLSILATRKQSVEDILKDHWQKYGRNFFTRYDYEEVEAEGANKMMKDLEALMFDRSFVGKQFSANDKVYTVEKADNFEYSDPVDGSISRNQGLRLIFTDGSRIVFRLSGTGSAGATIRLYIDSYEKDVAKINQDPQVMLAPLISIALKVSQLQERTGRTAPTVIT
# UniProt O75925, whole entry, looked up: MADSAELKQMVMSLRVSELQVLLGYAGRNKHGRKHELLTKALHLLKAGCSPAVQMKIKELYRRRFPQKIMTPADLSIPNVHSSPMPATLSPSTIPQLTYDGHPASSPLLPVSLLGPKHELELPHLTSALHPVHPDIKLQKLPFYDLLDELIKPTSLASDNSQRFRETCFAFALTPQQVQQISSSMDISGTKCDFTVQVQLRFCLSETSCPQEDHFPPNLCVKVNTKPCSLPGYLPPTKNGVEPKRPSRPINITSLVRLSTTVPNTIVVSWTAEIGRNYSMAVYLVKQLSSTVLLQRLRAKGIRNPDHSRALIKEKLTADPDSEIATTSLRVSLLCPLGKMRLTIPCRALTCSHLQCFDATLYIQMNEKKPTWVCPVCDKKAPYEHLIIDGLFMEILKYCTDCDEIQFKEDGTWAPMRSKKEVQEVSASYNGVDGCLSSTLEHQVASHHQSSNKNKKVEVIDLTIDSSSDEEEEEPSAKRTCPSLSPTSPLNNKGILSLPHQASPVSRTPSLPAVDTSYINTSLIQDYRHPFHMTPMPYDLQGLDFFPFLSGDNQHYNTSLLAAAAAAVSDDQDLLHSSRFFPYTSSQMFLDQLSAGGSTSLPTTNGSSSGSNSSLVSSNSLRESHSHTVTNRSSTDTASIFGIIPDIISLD
# UniProt Q8TEQ8: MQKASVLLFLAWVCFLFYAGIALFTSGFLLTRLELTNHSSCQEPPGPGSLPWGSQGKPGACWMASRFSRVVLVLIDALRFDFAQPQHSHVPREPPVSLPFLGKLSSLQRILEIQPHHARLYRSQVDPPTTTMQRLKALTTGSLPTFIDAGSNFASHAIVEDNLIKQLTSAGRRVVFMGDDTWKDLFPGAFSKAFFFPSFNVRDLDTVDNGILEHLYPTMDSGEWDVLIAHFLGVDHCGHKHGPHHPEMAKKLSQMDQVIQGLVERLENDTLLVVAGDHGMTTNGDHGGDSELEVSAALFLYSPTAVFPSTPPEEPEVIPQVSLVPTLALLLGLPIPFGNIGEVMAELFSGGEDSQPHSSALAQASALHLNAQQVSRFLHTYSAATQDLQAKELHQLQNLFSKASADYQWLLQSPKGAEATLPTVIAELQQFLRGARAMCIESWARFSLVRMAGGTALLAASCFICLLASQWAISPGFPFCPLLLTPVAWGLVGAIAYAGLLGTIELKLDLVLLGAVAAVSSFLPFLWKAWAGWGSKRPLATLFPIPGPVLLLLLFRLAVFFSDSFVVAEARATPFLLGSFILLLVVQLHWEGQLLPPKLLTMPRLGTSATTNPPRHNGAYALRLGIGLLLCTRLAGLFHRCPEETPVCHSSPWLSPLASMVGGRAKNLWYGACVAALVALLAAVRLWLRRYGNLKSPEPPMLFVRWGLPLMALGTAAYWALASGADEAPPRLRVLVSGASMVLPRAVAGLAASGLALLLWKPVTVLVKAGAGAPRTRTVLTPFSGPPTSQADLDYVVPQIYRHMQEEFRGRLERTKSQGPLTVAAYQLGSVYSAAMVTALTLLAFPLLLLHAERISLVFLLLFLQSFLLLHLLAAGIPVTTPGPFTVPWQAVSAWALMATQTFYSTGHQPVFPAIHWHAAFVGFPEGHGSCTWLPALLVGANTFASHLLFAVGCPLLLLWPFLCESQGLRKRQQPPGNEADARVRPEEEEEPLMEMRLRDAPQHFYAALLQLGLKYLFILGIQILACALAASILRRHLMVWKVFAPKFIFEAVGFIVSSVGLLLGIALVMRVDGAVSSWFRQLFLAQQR
# UniProt Q99569: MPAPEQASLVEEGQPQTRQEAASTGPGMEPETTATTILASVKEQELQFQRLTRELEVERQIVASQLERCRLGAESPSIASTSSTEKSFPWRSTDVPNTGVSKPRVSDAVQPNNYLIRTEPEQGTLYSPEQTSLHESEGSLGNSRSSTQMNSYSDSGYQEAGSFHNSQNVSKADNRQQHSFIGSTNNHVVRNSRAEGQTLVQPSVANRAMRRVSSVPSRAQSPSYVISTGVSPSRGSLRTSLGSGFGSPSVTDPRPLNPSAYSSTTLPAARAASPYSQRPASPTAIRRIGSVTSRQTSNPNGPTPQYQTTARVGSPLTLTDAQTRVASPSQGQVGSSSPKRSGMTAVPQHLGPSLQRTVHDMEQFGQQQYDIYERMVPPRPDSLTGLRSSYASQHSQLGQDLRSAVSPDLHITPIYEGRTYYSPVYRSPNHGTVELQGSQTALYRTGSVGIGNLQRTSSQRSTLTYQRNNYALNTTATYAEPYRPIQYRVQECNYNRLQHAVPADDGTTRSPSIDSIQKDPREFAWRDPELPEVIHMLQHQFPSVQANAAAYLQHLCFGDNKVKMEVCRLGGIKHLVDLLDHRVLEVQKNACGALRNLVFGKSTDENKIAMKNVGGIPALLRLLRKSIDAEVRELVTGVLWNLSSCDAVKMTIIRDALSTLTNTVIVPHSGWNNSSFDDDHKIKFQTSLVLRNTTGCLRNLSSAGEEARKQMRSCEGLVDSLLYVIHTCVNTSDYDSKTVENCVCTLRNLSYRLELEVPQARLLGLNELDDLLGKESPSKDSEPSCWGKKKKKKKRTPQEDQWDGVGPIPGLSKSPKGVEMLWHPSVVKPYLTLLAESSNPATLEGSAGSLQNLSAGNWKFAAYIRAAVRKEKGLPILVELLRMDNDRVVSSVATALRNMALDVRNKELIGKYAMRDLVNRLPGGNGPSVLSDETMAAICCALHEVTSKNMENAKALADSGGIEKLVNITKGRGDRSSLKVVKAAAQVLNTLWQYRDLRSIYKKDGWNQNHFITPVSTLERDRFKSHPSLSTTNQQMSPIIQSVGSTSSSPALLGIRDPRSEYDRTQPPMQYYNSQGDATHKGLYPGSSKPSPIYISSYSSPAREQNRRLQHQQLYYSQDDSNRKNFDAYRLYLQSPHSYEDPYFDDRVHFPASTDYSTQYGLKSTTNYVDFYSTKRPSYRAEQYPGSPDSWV
# UniProt Q99640: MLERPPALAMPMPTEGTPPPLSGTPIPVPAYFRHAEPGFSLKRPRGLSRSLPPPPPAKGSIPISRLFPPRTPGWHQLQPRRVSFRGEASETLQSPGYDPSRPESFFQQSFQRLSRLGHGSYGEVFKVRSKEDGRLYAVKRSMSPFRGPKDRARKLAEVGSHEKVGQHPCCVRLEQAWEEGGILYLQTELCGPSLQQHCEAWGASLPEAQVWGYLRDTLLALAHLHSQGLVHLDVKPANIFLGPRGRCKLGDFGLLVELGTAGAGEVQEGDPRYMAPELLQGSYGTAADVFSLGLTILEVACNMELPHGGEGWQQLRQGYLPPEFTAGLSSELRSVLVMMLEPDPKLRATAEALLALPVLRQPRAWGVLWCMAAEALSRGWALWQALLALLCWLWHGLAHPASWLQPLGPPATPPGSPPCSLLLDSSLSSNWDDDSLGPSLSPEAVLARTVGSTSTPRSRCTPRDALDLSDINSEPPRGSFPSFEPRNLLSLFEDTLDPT
# UniProt P11309, whole entry, looked up: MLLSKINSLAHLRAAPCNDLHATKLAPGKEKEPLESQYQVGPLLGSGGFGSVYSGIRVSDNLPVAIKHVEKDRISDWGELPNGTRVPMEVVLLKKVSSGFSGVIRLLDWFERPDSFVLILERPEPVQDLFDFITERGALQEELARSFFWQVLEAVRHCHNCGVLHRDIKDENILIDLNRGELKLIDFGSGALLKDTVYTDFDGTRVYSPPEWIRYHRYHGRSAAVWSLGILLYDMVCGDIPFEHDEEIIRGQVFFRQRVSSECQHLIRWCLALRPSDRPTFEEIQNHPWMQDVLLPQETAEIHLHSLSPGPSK
# Experiments:
# Assay in all cases: log2 fold change, soluble protein after heating vs DMSO (PISA); higher = thermal stabilisation; K562 cells, 10 uM, 30 min; active = over 0.2 and 3.5 SD of the protein, either way, in both replicates (recomputed)
# [1] = compound: C[C@H](C1=CC=C(C=C1)C(=O)NC2=C3C=CNC3=NC=C2)N
# Summary of the method: (§1)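 K562 cells at 2×10^6 cells/mL were treated for 30 min with 10 μM compound, and aliquots were heated for 3 min over 48°C-58°C before pooling. Extraction used PBS with 0.5% NP-40 at 4°C, and soluble protein was the supernatant after 21,000xg for 90 min, measured by TMTpro 16plex LC-MS/MS with channel sums equalised. Thermal stability values, relative to control samples and from duplicates, are log2 fold changes.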
# [2] = compound: Cn1cc(-c2ccc3c(c2)CCN3C(=O)Cc2cccc(C(F)(F)F)c2)c2c(N)ncnc21
# Summary of the method: as §1
# crizotinib = compound: C[C@@H](Oc1cc(-c2cnn(C3CCNCC3)c2)cnc1N)c1c(Cl)ccc(F)c1Cl [crizotinib]
# Summary of the method: as §1
# [3] = compound: C[C@@H]1COCCN1C2=NC(=NC(=C2)C3(CC3)S(=O)(=O)C)C4=C5C=CNC5=CC=C4
# Summary of the method: as §1
# gandotinib = compound: Cc1cc(Nc2cc(CN3CCOCC3)c3nc(C)c(Cc4ccc(Cl)cc4F)n3n2)n[nH]1 [gandotinib]
# Summary of the method: as §1
# [4] = compound: Cc1cc(SCc2sc(-c3ccc(C(F)(F)F)cc3)nc2C)ccc1OCC(=O)O
# Summary of the method: as §1
# doramapimod = compound: Cc1ccc(-n2nc(C(C)(C)C)cc2NC(=O)Nc2ccc(OCCN3CCOCC3)c3ccccc23)cc1 [doramapimod]
# Summary of the method: as §1
# ispinesib = compound: Cc1ccc(C(=O)N(CCCN)[C@@H](c2nc3cc(Cl)ccc3c(=O)n2Cc2ccccc2)C(C)C)cc1 [ispinesib]
# Summary of the method: as §1
# [5] = compound: Cc1cccc(CC(=O)N2CCc3c2ccc(-c2cn(C)c4ncnc(N)c24)c3F)n1
# Summary of the method: as §1
# dasatinib = compound: Cc1nc(Nc2ncc(C(=O)Nc3c(C)cccc3Cl)s2)cc(N2CCN(CCO)CC2)n1 [dasatinib]
# Summary of the method: as §1
# [6] = compound: Cn1cc(-c2ccc3nnc(C(F)(F)c4ccc5ncccc5c4)n3n2)cn1
# Summary of the method: as §1
# tipifarnib = compound: Cn1cncc1[C@@](N)(c1ccc(Cl)cc1)c1ccc2c(c1)c(-c1cccc(Cl)c1)cc(=O)n2C [tipifarnib]
# Summary of the method: as §1
# mubritinib = compound: FC(F)(F)c1ccc(/C=C/c2nc(COc3ccc(CCCCn4ccnn4)cc3)co2)cc1 [mubritinib]
# Summary of the method: as §1
# bafetinib = compound: Cc1ccc(NC(=O)c2ccc(CN3CC[C@H](N(C)C)C3)c(C(F)(F)F)c2)cc1Nc1nccc(-c2cncnc2)n1 [bafetinib]
# Summary of the method: as §1
# duvelisib = compound: C[C@H](Nc1ncnc2nc[nH]c12)c1cc2cccc(Cl)c2c(=O)n1-c1ccccc1 [duvelisib]
# Summary of the method: as §1
# tozasertib = compound: Cc1cc(Nc2cc(N3CCN(C)CC3)nc(Sc3ccc(NC(=O)C4CC4)cc3)n2)n[nH]1 [tozasertib]
# Summary of the method: as §1
# nilotinib = compound: Cc1cn(-c2cc(NC(=O)c3ccc(C)c(Nc4nccc(-c5cccnc5)n4)c3)cc(C(F)(F)F)c2)cn1 [nilotinib]
# Summary of the method: as §1
# [7] = compound: Cc1nc(Nc2n[nH]c3c2CN(C(=O)N[C@H](CN(C)C)c2ccccc2)C3(C)C)c2sccc2n1
# Summary of the method: as §1
# [8] = compound: Cc1ncc(-c2ccnc(Nc3ccc(S(C)(=O)=O)cc3)n2)n1C(C)C
# Summary of the method: as §1
# [9] = compound: CS(=O)(=O)c1ccc(-c2cnc(N)c(C(=O)Nc3ccccc3)n2)cc1
# Summary of the method: as §1
target,measurement,setting,value
PLAUR (UniProt Q03405),log2 fold change,[1],inactive: 0.029
same,log2 fold change,[2],inactive: 0.258
PIAS4 (UniProt Q8N2W9),log2 fold change,crizotinib,inactive: -0.178
same,log2 fold change,[3],inactive: 0.047
same,log2 fold change,gandotinib,inactive: -0.013
same,log2 fold change,[4],inactive: 0.021
same,log2 fold change,doramapimod,inactive: 0.061
same,log2 fold change,ispinesib,inactive: -0.278
same,log2 fold change,[5],inactive: 0
same,log2 fold change,dasatinib,inactive: -0.116
same,log2 fold change,[6],inactive: 0.313
same,log2 fold change,tipifarnib,inactive: 0.002
same,log2 fold change,mubritinib,inactive: 0.199
PKLR (UniProt F8W6W2),log2 fold change,bafetinib,inactive: -0.114
same,log2 fold change,tipifarnib,inactive: 0.103
PEX26 (UniProt Q7Z412),log2 fold change,crizotinib,inactive: -0.164
same,log2 fold change,[3],inactive: 0.232
same,log2 fold change,[1],inactive: 0.07
same,log2 fold change,duvelisib,inactive: 0.034
same,log2 fold change,gandotinib,inactive: -0.065
same,log2 fold change,tozasertib,inactive: 0.08
same,log2 fold change,[4],inactive: 0.037
same,log2 fold change,doramapimod,inactive: 0.219
same,log2 fold change,ispinesib,inactive: -0.115
same,log2 fold change,[5],inactive: 0.024
same,log2 fold change,nilotinib,inactive: -0.169
same,log2 fold change,[7],inactive: 0.187
same,log2 fold change,dasatinib,inactive: 0.085
same,log2 fold change,[8],inactive: -0.494
same,log2 fold change,[2],inactive: 0.012
same,log2 fold change,[6],inactive: 0.046
same,log2 fold change,tipifarnib,inactive: 0.011
same,log2 fold change,mubritinib,inactive: 0.016
PGD (UniProt K7EM49),log2 fold change,crizotinib,inactive: 0.1
same,log2 fold change,[3],inactive: 0.089
same,log2 fold change,gandotinib,inactive: -0.067
same,log2 fold change,doramapimod,inactive: -0.009
same,log2 fold change,ispinesib,inactive: -0.075
same,log2 fold change,bafetinib,inactive: -0.238
same,log2 fold change,[5],inactive: -0.543
same,log2 fold change,[6],inactive: 0.099
same,log2 fold change,tipifarnib,inactive: 0.092
PHRF1 (UniProt Q9P1Y6),log2 fold change,ispinesib,inactive: -0.296
same,log2 fold change,[6],inactive: 0.084
same,log2 fold change,tipifarnib,inactive: 0.159
same,log2 fold change,mubritinib,inactive: -0.099
PIMREG (UniProt Q9BSJ6),log2 fold change,gandotinib,inactive: -0.11
same,log2 fold change,[5],inactive: 0.197
PICK1 (UniProt Q9NRD5),log2 fold change,[9],inactive: 0.089
same,log2 fold change,[3],inactive: -0.073
same,log2 fold change,ispinesib,inactive: 0.001
same,log2 fold change,nilotinib,inactive: -0.001
same,log2 fold change,[7],inactive: -0.173
same,log2 fold change,[8],inactive: -0.097
same,log2 fold change,[6],inactive: -0.179
same,log2 fold change,mubritinib,inactive: 0.048
PHLPP1 (UniProt O60346),log2 fold change,[3],inactive: -0.142
same,log2 fold change,[1],inactive: 0.082
same,log2 fold change,duvelisib,inactive: -0.099
same,log2 fold change,tozasertib,inactive: -0.092
same,log2 fold change,[4],inactive: 0
same,log2 fold change,dasatinib,inactive: 0.007
same,log2 fold change,[2],inactive: 0.026
PHETA1 isoform 4 (UniProt Q8N4B1),log2 fold change,duvelisib,inactive: -0.023
same,log2 fold change,gandotinib,inactive: 0.021
same,log2 fold change,[4],inactive: 0.019
same,log2 fold change,[5],inactive: -0.086
same,log2 fold change,dasatinib,inactive: 0.085
same,log2 fold change,tipifarnib,inactive: 0.092
PKIG (UniProt Q9Y2B9),log2 fold change,mubritinib,inactive: -0.197
PLCG2 (UniProt P16885),log2 fold change,bafetinib,inactive: -0.054
PLCXD1 (UniProt Q9NUJ7),log2 fold change,ispinesib,inactive: -0.145
same,log2 fold change,bafetinib,active: -0.642
same,log2 fold change,[6],inactive: -0.099
PI4KB isoform 2 (UniProt Q9UBF8),log2 fold change,gandotinib,inactive: -0.101
same,log2 fold change,[5],inactive: 0.038
PKNOX1 (UniProt P55347),log2 fold change,duvelisib,inactive: -0.037
same,log2 fold change,[4],inactive: 0.036
same,log2 fold change,dasatinib,inactive: -0.103
PFKFB1 (UniProt P16118),log2 fold change,[9],inactive: -0.116
same,log2 fold change,[3],inactive: 0.047
same,log2 fold change,gandotinib,inactive: -0.304
same,log2 fold change,bafetinib,inactive: -0.081
same,log2 fold change,[5],inactive: 0.081
same,log2 fold change,nilotinib,inactive: -0.026
same,log2 fold change,[7],inactive: -0.13
same,log2 fold change,[8],inactive: -0.057
same,log2 fold change,tipifarnib,inactive: 0.031
same,log2 fold change,mubritinib,inactive: 0.079
PGM1 isoform 2 (UniProt P36871),log2 fold change,duvelisib,inactive: 0.045
same,log2 fold change,[4],inactive: -0.142
same,log2 fold change,dasatinib,inactive: 0.118
PIGH (UniProt Q14442),log2 fold change,crizotinib,inactive: -0.037
same,log2 fold change,[3],inactive: -0.012
same,log2 fold change,[1],inactive: -0.179
same,log2 fold change,gandotinib,inactive: 0.036
same,log2 fold change,[4],inactive: 0.04
same,log2 fold change,doramapimod,inactive: -0.062
same,log2 fold change,ispinesib,inactive: 0.033
same,log2 fold change,bafetinib,inactive: -0.037
same,log2 fold change,[5],inactive: -0.01
same,log2 fold change,dasatinib,inactive: -0.053
same,log2 fold change,[2],inactive: 0.099
same,log2 fold change,[6],inactive: 0.009
same,log2 fold change,tipifarnib,inactive: 0.056
same,log2 fold change,mubritinib,inactive: 0.04
PIBF1 (UniProt Q8WXW3),log2 fold change,duvelisib,inactive: -0.456
same,log2 fold change,tozasertib,inactive: 0.198
same,log2 fold change,[4],inactive: 0.293
same,log2 fold change,bafetinib,inactive: 0.053
same,log2 fold change,dasatinib,inactive: -0.009
same,log2 fold change,mubritinib,inactive: -0.076
PIAS1 isoform 2 (UniProt O75925),log2 fold change,crizotinib,inactive: -0.161
same,log2 fold change,doramapimod,inactive: -0.076
same,log2 fold change,ispinesib,inactive: -0.121
same,log2 fold change,bafetinib,inactive: -0.089
same,log2 fold change,[6],inactive: -0.097
same,log2 fold change,tipifarnib,inactive: 0.073
PIGO (UniProt Q8TEQ8),log2 fold change,crizotinib,inactive: -0.01
same,log2 fold change,[3],inactive: 0.031
same,log2 fold change,[1],inactive: 0.058
same,log2 fold change,tozasertib,inactive: 0.013
same,log2 fold change,doramapimod,inactive: 0.266
same,log2 fold change,bafetinib,inactive: -0.028
same,log2 fold change,nilotinib,inactive: -0.028
same,log2 fold change,[7],inactive: -0.041
same,log2 fold change,[8],inactive: -0.1
same,log2 fold change,[2],inactive: 0.036
same,log2 fold change,mubritinib,inactive: -0.083
PKP4 (UniProt Q99569),log2 fold change,[3],inactive: -0.134
same,log2 fold change,ispinesib,inactive: -0.044
same,log2 fold change,[6],inactive: 0.081
PLEKHB2 isoform 2 (UniProt Q96CS7),log2 fold change,duvelisib,inactive: 0.207
same,log2 fold change,[4],inactive: -0.05
same,log2 fold change,bafetinib,inactive: -0.108
same,log2 fold change,dasatinib,inactive: 0.178
same,log2 fold change,tipifarnib,inactive: 0.002
PKIB isoform 2 (UniProt Q9C010),log2 fold change,gandotinib,inactive: 0.164
same,log2 fold change,[5],inactive: -0.113
same,log2 fold change,tipifarnib,inactive: 0.007
same,log2 fold change,mubritinib,inactive: 0.128
PHF14 (UniProt O94880),log2 fold change,[9],inactive: -0.283
same,log2 fold change,duvelisib,inactive: -0.081
same,log2 fold change,gandotinib,inactive: -0.027
same,log2 fold change,tozasertib,inactive: 0.123
same,log2 fold change,[4],inactive: -0.116
same,log2 fold change,ispinesib,inactive: -0.01
same,log2 fold change,[5],inactive: 0.069
same,log2 fold change,dasatinib,inactive: 0.137
same,log2 fold change,[6],inactive: 0.084
same,log2 fold change,mubritinib,inactive: 0.143
PLEK (UniProt P08567),log2 fold change,crizotinib,inactive: 0.313
same,log2 fold change,doramapimod,inactive: 0.152
same,log2 fold change,ispinesib,inactive: -0.089
same,log2 fold change,[6],inactive: -0.024
same,log2 fold change,tipifarnib,inactive: 0.058
PKMYT1 (UniProt Q99640),log2 fold change,[9],inactive: 0.036
same,log2 fold change,[3],inactive: 0.216
same,log2 fold change,ispinesib,inactive: -0.603
same,log2 fold change,[6],inactive: -0.074
PIGL (UniProt Q9Y2B2),log2 fold change,crizotinib,inactive: -0.114
same,log2 fold change,[3],inactive: -0.001
same,log2 fold change,[1],inactive: 0.005
same,log2 fold change,duvelisib,inactive: 0.008
same,log2 fold change,gandotinib,inactive: -0.04
same,log2 fold change,tozasertib,inactive: -0.066
same,log2 fold change,[4],inactive: -0.031
same,log2 fold change,doramapimod,inactive: 0
same,log2 fold change,ispinesib,inactive: 0.086
same,log2 fold change,bafetinib,inactive: 0.1
same,log2 fold change,[5],inactive: -0.012
same,log2 fold change,nilotinib,inactive: 0.094
same,log2 fold change,[7],inactive: -0.036
same,log2 fold change,dasatinib,inactive: 0.037
same,log2 fold change,[8],inactive: -0.041
same,log2 fold change,[2],inactive: -0.095
same,log2 fold change,[6],inactive: 0.062
same,log2 fold change,mubritinib,inactive: 0.074
PIM1 isoform 2 (UniProt P11309),log2 fold change,gandotinib,inactive: -0.084
same,log2 fold change,[5],inactive: -0.263
same,log2 fold change,mubritinib,inactive: 0.721

# Another view of part of the listing above.
target	measurement	setting	value
PICK1 (UniProt Q9NRD5)	log2 fold change	[7]	inactive: -0.173
PKIG (UniProt Q9Y2B9)	log2 fold change	mubritinib	inactive: -0.197
PFKFB1 (UniProt P16118)	log2 fold change	[7]	inactive: -0.13
PHF14 (UniProt O94880)	log2 fold change	gandotinib	inactive: -0.027
PLEK (UniProt P08567)	log2 fold change	crizotinib	inactive: 0.313
PIGL (UniProt Q9Y2B2)	log2 fold change	[2]	inactive: -0.095

# Not a retest: entries from further up.
target,measurement,setting,value
PIGH (UniProt Q14442),log2 fold change,dasatinib,inactive: -0.053
same,log2 fold change,[2],inactive: 0.099
